Measurements from article PMC7524712.

T1: vdUTPase tagged with Strep-tag (SE-vdUTPase) (herpes simplex virus 1, strain F) (UniProt P10234)
T1 sequence: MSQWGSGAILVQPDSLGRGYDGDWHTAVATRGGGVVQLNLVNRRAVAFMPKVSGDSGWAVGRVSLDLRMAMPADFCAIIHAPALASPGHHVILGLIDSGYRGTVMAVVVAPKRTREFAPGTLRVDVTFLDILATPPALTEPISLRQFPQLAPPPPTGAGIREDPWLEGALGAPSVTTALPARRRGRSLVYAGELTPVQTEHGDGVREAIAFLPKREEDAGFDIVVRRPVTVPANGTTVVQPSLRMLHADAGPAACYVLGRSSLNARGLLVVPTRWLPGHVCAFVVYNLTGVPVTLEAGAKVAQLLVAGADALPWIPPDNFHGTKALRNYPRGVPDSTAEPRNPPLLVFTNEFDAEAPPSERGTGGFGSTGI

T2: GST-vdUTPase_(201–280) (herpes simplex virus 1, strain F) (UniProt P10234)
T2 sequence: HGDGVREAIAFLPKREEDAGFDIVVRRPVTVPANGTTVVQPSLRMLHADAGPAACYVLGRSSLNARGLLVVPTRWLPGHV

B1: 6xHis-SUMO-vdUTPase (enzyme, UniProt P10234 1-371)
chain: T1 sequence

What was measured:
[1] = molecular target: T1, vdUTPase tagged with Strep-tag (SE-vdUTPase) (herpes simplex virus 1, strain F); test: co-IP; Strep-tag affinity precipitation: lysates (0.5% NP-40 buffer, 150 mM NaCl) of Vero cells infected at an MOI of 10 for 12 h, Strep-Tactin sepharose beads, 4 °C, 1.5 h; immunoblot
[2] = molecular target: T2, GST-vdUTPase_(201–280) (herpes simplex virus 1, strain F); test: pull-down; purified GST, GST-vdUTPase_(201–280) or GST-vdUTPase_(281–371) immobilised on glutathione-sepharose resin, purified SE-piUL49 or SE-piUL49R83L in solution, 1 h at 4 °C, washed with 0.5% NP-40 buffer; immunoblot; both purified
[3] = molecular target: GST-piUL49R83L (herpes simplex virus 1, strain F); test: pull-down; purified GST-piUL49 or GST-piUL49R83L immobilised on glutathione-sepharose resin, purified 6xHis-SUMO-vdUTPase or 6xHis-SUMO-vUNG in solution, 1 h at 4 °C, washed with 0.5% NP-40 buffer; immunoblot; both purified

| Molecule | binding [1] | other results |
| --- | --- | --- |
| iUL49R7/L7 mutant of piUL49 (herpes simplex virus 1, strain F) | binds | – |
| iUL49R83L mutant of piUL49 (herpes simplex virus 1, strain F) | no binding | – |
| iUL49R6H1/L7 mutant of piUL49 (herpes simplex virus 1, strain F) | no binding | – |
| SE-piUL49R83L (herpes simplex virus 1, strain F) | – | binding [2]: no binding |
| iUL49R3/L3 mutant of piUL49 (herpes simplex virus 1, strain F) | no binding | – |
| B1 | – | binding [3]: no binding |

These are yes or no findings as the source states them, for the method shown. For part of these data: Binding seen in cells or lysates may run through a third protein. For part of these data: Binding can be weak; no strength is given. Where a sequence is shown, tags or fusion partners need not be part of it.
